In publication PMC7862700:
The list shows a part of the results, in another mix than the full data. At the low end of the ranking the order means little.

Amino acid sequences for entries named in this document (tags omitted). A change or cut given only in a name is not applied to a line headed by its entry.
UniProt Q01892: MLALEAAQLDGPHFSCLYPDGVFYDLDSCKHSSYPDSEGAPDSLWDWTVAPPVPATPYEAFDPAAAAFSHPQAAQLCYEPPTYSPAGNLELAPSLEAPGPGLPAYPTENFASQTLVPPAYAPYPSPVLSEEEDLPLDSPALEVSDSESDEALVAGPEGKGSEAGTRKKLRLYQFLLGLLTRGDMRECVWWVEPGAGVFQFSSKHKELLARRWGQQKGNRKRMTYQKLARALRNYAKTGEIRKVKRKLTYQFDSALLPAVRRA
UniProt P41161: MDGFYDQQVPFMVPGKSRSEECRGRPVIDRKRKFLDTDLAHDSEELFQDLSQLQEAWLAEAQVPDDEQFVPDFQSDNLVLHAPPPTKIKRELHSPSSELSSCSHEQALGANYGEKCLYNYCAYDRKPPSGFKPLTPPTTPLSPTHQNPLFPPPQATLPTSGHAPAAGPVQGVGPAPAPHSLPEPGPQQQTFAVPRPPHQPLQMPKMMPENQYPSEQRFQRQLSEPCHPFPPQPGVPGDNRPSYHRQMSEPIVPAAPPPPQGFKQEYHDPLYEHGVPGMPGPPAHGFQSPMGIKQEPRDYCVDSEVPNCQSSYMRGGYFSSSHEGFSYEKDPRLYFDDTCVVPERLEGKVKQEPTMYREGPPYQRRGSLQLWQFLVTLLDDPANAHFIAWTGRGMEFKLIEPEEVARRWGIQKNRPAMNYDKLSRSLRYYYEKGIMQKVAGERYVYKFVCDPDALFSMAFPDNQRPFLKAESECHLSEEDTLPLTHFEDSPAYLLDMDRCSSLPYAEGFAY

Key:
Assay in all cases: DAPPL (digital affinity profiling via proximity ligation, sequencing)
Conditions in all cases: 10 mM Tris-HCl pH 7.5, 50 mM NaCl, 1 mM DTT, 4% glycerol, room temperature, 30 min; GST-TFs on glutathione beads, 16-mer random dsDNA library, 0.1% …; high values mean tight binding; double strand, one strand shown; scale: fold enrichment (6-mer frequency, TF over GST control)
[1] = biological target: T1, FLI1 (UniProt Q01543)
T1 sequence: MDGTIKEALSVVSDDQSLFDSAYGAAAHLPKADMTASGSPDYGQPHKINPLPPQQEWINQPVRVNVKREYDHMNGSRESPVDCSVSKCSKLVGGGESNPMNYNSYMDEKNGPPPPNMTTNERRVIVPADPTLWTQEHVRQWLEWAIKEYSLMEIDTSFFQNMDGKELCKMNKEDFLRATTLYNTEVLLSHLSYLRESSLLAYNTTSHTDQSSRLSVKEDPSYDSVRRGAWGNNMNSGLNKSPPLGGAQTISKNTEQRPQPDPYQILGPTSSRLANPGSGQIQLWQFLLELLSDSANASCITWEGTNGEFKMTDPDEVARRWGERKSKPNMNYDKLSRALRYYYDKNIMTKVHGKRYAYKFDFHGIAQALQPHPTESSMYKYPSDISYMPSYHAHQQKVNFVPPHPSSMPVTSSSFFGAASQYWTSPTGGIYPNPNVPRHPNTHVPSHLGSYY

[2] = biological target: T2, EHF (UniProt Q9NZC4)
T2 sequence: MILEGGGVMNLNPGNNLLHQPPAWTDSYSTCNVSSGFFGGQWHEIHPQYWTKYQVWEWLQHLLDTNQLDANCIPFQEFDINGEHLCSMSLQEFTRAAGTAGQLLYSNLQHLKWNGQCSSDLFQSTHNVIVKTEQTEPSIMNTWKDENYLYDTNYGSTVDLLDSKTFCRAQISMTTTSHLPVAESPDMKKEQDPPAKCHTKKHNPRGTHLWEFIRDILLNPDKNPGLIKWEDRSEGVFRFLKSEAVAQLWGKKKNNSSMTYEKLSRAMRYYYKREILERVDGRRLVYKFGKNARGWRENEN

[3] = biological target: SPIB (UniProt Q01892)
[4] = biological target: ETV5 (UniProt P41161)
[5] = biological target: T3, ETV2 (UniProt O00321)
T3 sequence: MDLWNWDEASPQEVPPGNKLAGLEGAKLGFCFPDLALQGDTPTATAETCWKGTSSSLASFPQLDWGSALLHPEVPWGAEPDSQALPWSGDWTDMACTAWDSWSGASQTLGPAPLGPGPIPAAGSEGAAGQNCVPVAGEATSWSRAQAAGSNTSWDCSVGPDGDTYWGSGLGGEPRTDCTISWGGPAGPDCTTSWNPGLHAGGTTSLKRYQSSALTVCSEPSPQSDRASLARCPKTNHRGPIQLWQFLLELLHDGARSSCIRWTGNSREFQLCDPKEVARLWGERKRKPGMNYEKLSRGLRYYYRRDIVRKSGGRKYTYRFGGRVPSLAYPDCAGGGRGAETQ

[6] = biological target: T4, ETV3L (UniProt Q6ZN32)
T4 sequence: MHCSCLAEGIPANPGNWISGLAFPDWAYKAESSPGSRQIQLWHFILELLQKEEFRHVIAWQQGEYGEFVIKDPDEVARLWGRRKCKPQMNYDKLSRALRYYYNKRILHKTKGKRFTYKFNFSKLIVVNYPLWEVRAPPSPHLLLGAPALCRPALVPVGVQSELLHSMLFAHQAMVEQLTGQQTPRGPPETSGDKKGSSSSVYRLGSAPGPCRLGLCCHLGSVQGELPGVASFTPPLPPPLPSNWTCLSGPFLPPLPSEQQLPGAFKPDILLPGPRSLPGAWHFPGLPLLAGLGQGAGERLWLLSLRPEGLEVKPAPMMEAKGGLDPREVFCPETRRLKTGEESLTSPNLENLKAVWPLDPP

| Sequence | binding signal [1] | binding signal [2] | binding signal [3] | binding signal [4] | binding signal [5] | binding signal [6] |
| --- | --- | --- | --- | --- | --- | --- |
| GTTACC | 0.985 | 0.982 | 1.14 | 1.06 | 0.897 |  |
| GACTAT | 0.86 | 0.914 | 0.99 | 0.849 | 0.981 |  |
| CCAATA | 1.24 | 1.25 |  | 1.29 | 1.09 |  |
| GTCACC | 0.9 | 0.891 | 0.837 | 0.925 | 0.994 | 0.889 |
| ATTGTG | 0.892 | 0.812 | 0.884 | 0.864 | 0.971 | 0.941 |
| AGATTA | 0.923 |  | 0.974 | 0.982 | 0.966 |  |
| CGCCAC | 0.892 | 0.911 | 0.961 | 0.956 | 0.914 |  |
| TGTATT | 1.38 | 1.34 | 1.28 | 1.33 | 1.32 |  |
| GCCATT | 0.952 | 0.952 | 0.964 | 0.933 | 0.995 | 0.955 |
| CTAAGG | 0.95 | 0.971 | 0.914 | 0.997 | 0.839 | 0.844 |
| GCCACC | 0.846 | 0.968 | 0.973 | 0.873 | 0.838 | 0.929 |
| GACTGC | 1.03 | 0.882 | 0.912 | 0.99 | 0.963 |  |
| ATCGCG | 0.927 | 0.922 | 0.92 | 0.887 | 0.962 | 0.938 |
| TATAAA | 1.17 |  | 1.3 | 1.18 |  | 1.15 |
| TCGCGG | 0.997 | 0.977 |  | 0.964 |  | 1.04 |
| GATAAA | 0.967 | 0.924 | 1.04 | 0.987 |  | 0.927 |
| ACCGCC | 1.38 | 1.36 | 1.13 | 1.23 |  |  |
| GTAACC | 1.04 | 1.11 | 1.1 | 1.05 |  | 0.984 |
| CTCGTC | 1.49 |  | 1.39 | 1.31 |  | 1.24 |
| AATACC | 1.25 | 1.19 | 1.16 | 1.13 |  |  |

A second format for some results above:
Sequence | binding signal [1] | binding signal [2] | binding signal [3] | binding signal [4] | binding signal [5] | binding signal [6]
GCCATT | 0.952 | 0.952 | 0.964 | 0.933 | 0.995 | 0.955
CTAAGG | 0.95 | 0.971 | 0.914 | 0.997 | 0.839 | 0.844
